Experimental data published in paper PMC6862323, “Substitution of Arginine 120 in Human D-Amino Acid Oxidase Favors FAD-Binding and Nuclear Mistargeting” (Frontiers in Molecular Biosciences, 2019).

Assays:
wild-type hDAAO = details: apoprotein, no benzoate; ref Murtas et al. (2017); cited from earlier work
U87 glioblastoma cells = experiment: Confocal analysis of cellular distribution of EYFP-hDAAO variants in transiently transfected U87 cells; type: cell-based, human
Experimental: Human U87 glioblastoma cells (ATCC) were cultured in DMEM supplemented with 10% fetal bovine serum, 1 mM sodium pyruvate, 2 mM L-glutamine, 1% non-essential amino acids, 1% penicillin/streptomycin, and 1% amphotericin B (Euroclone), at 37°C in 5% CO2. The cells were transfected either with the pEYFP-hDAAO-C3 construct (for the expression of the wild-type enzyme downstream of the enhanced yellow fluorescent protein, EYFP) (Sacchi et al., [2008], [2011]), the pEYFP-hDAAO(R120L)-C3, or the pEYFP-hDAAO(R120E)-C3 expression vectors. The latter constructs were obtained by mutagenesis using the QuikChange Lightning Site-Directed Mutagenesis Kit (Agilent), and the following primers: 5′-[…]-3′ and 5′-[…]-3′ for the R120E substitution, and 5-[…]-3′ and 5′-[…]-3′ for the R120L substitution.
For transient transfection, 2 ×10^4 cells were seeded into eight-well chamber slides (Sarstedt). At 24 h after seeding, cells were transfected with 2 μg plasmid DNA using a 4:1 ratio of FuGENE transfection reagent (Promega) to DNA. Then, 12.5 μL of transfection mix was added to 500 μL medium per well. Protein expression levels were monitored by using a fluorescence microscope (Olympus IX51) equipped with a FITC filter and by Western blot analysis using an anti-hDAAO antibody (Davids Biotechnologie) (Sacchi et al., [2008], [2011]).
At 24, 48, and 72 h after transfection, cells were washed twice with PBS and fixed with ice-cold 4% p-formaldehyde and 4% sucrose for 10 min at room temperature. After fixation, cells were washed twice with PBS and blocked by incubation in PBS supplemented with 0.2% Triton X-100 and 4% horse serum for 30 min at room temperature. Peroxisomes were stained using rabbit polyclonal anti-PMP70 (peroxisomal membrane protein 70, Sigma), diluted 1:500 in PBS, 0.1% Triton X-100, and 4% horse serum overnight at 4°C; they were then washed twice in PBS and 1% horse serum and incubated for 1 h at room temperature (light protected) with goat anti-rabbit Dylight 550 secondary antibodies (Abcam) diluted 1:400 in PBS, 0.1% Triton X-100, and 1.5% horse serum. Cells were then extensively washed in PBS and nuclei were stained with DRAQ5™ (Thermo Scientific) and diluted 1:500 in PBS for 10 min at room temperature in the dark. Cells were washed three times with PBS and stored in PBS at 4°C until imaging.
Immunostained cells were imaged using an inverted laser scanning confocal microscope (TCS SP5, Leica Microsystems), equipped with a 63.0 ×1.25 NA plan apochromatic oil immersion objective. Confocal image stacks were acquired using the Leica TCS software with a sequential mode to avoid interference between each channel and without saturating any pixel. Cells in 10–15 non-magnified optical fields were analyzed for each condition (i.e., different EYFP-hDAAO expression constructs at different times after transfection). The fluorescence signal corresponding to the overexpressed EYFP-hDAAO variants was monitored by excitation at 514 nm (yellow channel); the peroxisomal and nuclear cellular compartments were imaged by excitation at 546 nm (red channel) and 647 nm (blue channel), respectively.
U87 glioblastoma cells were transiently transfected with a pEYFP-hDAAO-C3 plasmid encoding for EYFP-hDAAO chimeric proteins harboring R, E, or L at position 120 of the flavoenzyme. […] A similar amount of transfected cells (expressing EYFP-hDAAO protein) was obtained for all three constructs (Table 4). The percentage of cells showing a cytosolic, peroxisomal, and nuclear localization of the flavoenzyme was determined by comparing the yellow fluorescence signal of EYFP-hDAAO variants with those of the markers PMP-70 (for peroxisomes) and DRAQ5™ dye (for nuclei, Figure 5). The amount of cytosolic wild-type EYFP-hDAAO decreased with time after transfection (28% of the signal is cytosolic at 72 h vs. 94% at 24 h), as did the amount of nuclear signal (Table 4 and Figure 6). […]

[1] = Standard DAAO activity assay of purified hDAAO variants (oxygen electrode, 28 mM D-alanine); type: biochemical; details: purified protein, activity without vs with excess exogenous FAD

Molecule | amplitude of fluorescence change, FAD binding, free form, first phase (wild-type hDAAO) [%] | amplitude of fluorescence change, FAD binding, free form, second phase (wild-type hDAAO) [%] | T, transfected cells (U87 glioblastoma cells; 24 h after transfection) [%] | T, transfected cells (U87 glioblastoma cells; 48 h after transfection) [%] | T, transfected cells (U87 glioblastoma cells; 72 h after transfection) [%] | Holoenzyme content [1] [%]
Cc1cc2nc3c(=O)[nH]c(=O)nc-3n(C[C@H](O)[C@H](O)[C@H](O)COP(=O)(O)OP(=O)(O)OC[C@H]3O[C@@H](n4cnc5c(N)ncnc54)[C@H](O)[C@@H]3O)c2cc1C [FAD] | 40 | 60 |  |  |  | 
R120E: hDAAO variant with Arg120 substituted by glutamate (His-tagged from E. coli; EYFP-tagged in U87 cells) |  |  | 24.9 | 24.4 | 19.2 | 100
Wild-type: recombinant wild-type human D-amino acid oxidase (His-tagged from E. coli; EYFP-tagged in U87 cells) |  |  | 24.3 | 17.4 | 16.0 | 
R120L: hDAAO variant with Arg120 substituted by leucine (His-tagged from E. coli; EYFP-tagged in U87 cells) |  |  | 20.7 | 24.9 | 19.4 | 100
